Results are given in words; binding and its absence hold for the method and conditions named. Binding seen in cells or lysates may run through a third protein. Some entries that bind do so weakly or less than the wild type. For some assays here: Where a sequence is shown, tags or fusion partners need not be part of it.
T1: mCherry-NME2 (human), P22392
T1 chain: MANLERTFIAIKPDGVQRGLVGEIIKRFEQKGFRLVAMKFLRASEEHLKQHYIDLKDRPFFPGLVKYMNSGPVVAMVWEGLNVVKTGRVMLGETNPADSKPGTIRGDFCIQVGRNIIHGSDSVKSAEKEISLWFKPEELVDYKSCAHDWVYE

B1: EGFP-NME2, P22392 1-152 (protein)
chain: MANLERTFIAIKPDGVQRGLVGEIIKRFEQKGFRLVAMKFLRASEEHLKQHYIDLKDRPFFPGLVKYMNSGPVVAMVWEGLNVVKTGRVMLGETNPADSKPGTIRGDFCIQVGRNIIHGSDSVKSAEKEISLWFKPEELVDYKSCAHDWVYE
B2: NME2-EGFP, P22392 1-152 (protein)
chain: MANLERTFIAIKPDGVQRGLVGEIIKRFEQKGFRLVAMKFLRASEEHLKQHYIDLKDRPFFPGLVKYMNSGPVVAMVWEGLNVVKTGRVMLGETNPADSKPGTIRGDFCIQVGRNIIHGSDSVKSAEKEISLWFKPEELVDYKSCAHDWVYE
B3: NME2, P22392 1-152 (protein)
chain: MANLERTFIAIKPDGVQRGLVGEIIKRFEQKGFRLVAMKFLRASEEHLKQHYIDLKDRPFFPGLVKYMNSGPVVAMVWEGLNVVKTGRVMLGETNPADSKPGTIRGDFCIQVGRNIIHGSDSVKSAEKEISLWFKPEELVDYKSCAHDWVYE

Columns and labels:
Settings in all cases: remark: other sources report otherwise
[1] = target: mCherry-NME1 (human), P15531; test: FRET or BRET; FRET-FLIM (TCSPC) in live transfected HeLa cells at 37 °C; donor EGFP fusion, acceptor mCherry fusion; fraction of donors that experience FRET (DF) from a double-exponential fit; whole cells, and nucleus and cytoplasm apart; cells not irradiated or irradiated with 15 Gy gamma rays (Co-60)
[2] = target: T1, mCherry-NME2 (human), P22392; test: as above
[3] = target: NME1-FLAG (human), P15531; test: co-IP; anti-FLAG M2 agarose on nuclear and cytosolic fractions of co-transfected HeLa cells after induction of DNA damage (30 Gy); 100 µg total protein, overnight at 4 °C; beads equilibrated in TENN buffer (50 mM Tris pH 7.4, 150 mM NaCl, 5 mM EDTA, 0.5% NP-40); blot with anti-NME2

Binder	binding [1]	binding [2]	binding [3]
B1	binds	binds	–
B2	binds	binds	–
B3	–	–	binds

— PMC7177722
